# Laboratory results reported in patent USRE35053E, “Amines useful in producing pharmaceutically active CNS compounds” (The Upjohn Company, priority 1992, dated 1995).
# Structures can show the parent of a compound that is named as a salt. Some of these results come from one statement about several compounds together. At least one structure is not confirmed: it was looked up by name or label, or the drawing left a doubt.
# Test system: conjugated diene formation in rat brain synaptosomes
# Experiment: Conjugated diene formation assay (lipid peroxidation)
# Type: biochemical
# Settings: 100 μM (or less) of the drug, active = 50% inhibition or more
# Method: The formation of conjugated dienes as assayed by Braughler. […] Bucher, Fund.
# Synaptosomal suspension (10 μl) is added to 1 ml of physiological (normal) saline containing 1% Lubrol PX (Sigma Chemical Co. St. Louis, Mo.). […] The reaction is started by the rapid addition of 200 μM ferrous ammonium sulfate prepared in argon-purged water. The sample is rapidly mixed and the change in absorbance at 232nm is followed in a Gilford Response Spectrophotometer equipped with a rapid sampler. Due to the rapidity of the reaction, rapid addition of the iron, rapid mixing and sampling are obligatory to the accuracy of the assay. For best results absorbance readings of one/sec should be started within 5 sec following the addition of iron. The initial linear rate of absorbance change during the first 30 sec of reaction are compared with the rate of a reaction containing all reagents except synaptosomes. The difference in rates is the rate of conjugated diene formation. Rates with drug are compared to rates obtained in the absence of drug and the % inhibition is calculated.
row,Structure (SMILES),inhibition of conjugated diene formation
1,"C[C@]12CCC(=O)C=C1CC[C@@H]1C2=CC[C@@]2(C)[C@H]1CC[C@]2(O)C(=O)CN1CCN(c2cccc(N3CCCC3)n2)CC1 [Example 62, 17α-hydroxy-21-[4-[6-(1-pyrrolidinyl)-2-pyridinyl]-1-piperazinyl]pregna-4,9(11)-diene-3,20-dione(E)-2-butenedioate (1:1) salt]",demonstrate such activity
2,"CCN(CC)c1cc(N2CCN(CC(=O)[C@@]3(O)CC[C@H]4[C@@H]5C[C@H](C)C6=CC(=O)C=C[C@]6(C)C5=CC[C@@]43C)CC2)nc(N(CC)CC)n1 [Example 63, 21-[4-[2,6-bis(diethylamino)-4-pyrimidinyl]-1-piperazinyl]-17α-hydroxy-6α-methylpregna-1,4,9(11)-triene-3,20-dione(E)-2-butenedioate (1:1) salt]",demonstrate such activity
3,"C[C@]12CCC(=O)C=C1CC[C@@H]1C2=CC[C@@]2(C)[C@H]1CC[C@]2(O)C(=O)CN1CCN(c2cc(N3CCCC3)nc(N3CCCC3)n2)CC1 [Example 64, 17α-hydroxy-21-[4-[2,6-bis(1-pyrrolidinyl)-4-pyrimidinyl]-1-piperazinyl]pregna-4,9(11)-diene-3,20-dione (E)-2-butenedioate (1:1) salt]",demonstrate such activity
4,"C[C@]12CC[C@H]3[C@@H](CCC4=CC(=O)C=C[C@@]43C)[C@@H]1CC[C@@H]2C(=O)CN1CCN(c2ccccn2)CC1 [Example 65, 21-[4-(2-pyridinyl)-1-piperazinyl]pregna-1,4-diene-3,20-dione(#)-2-butenedioate (1:1) salt]",demonstrate such activity
5,"C[C@]12C=CC(=O)C=C1CC[C@@H]1[C@@H]2[C@H](O)C[C@@]2(C)[C@H]1CC[C@]2(O)C(=O)CN1CCN(c2ccccn2)CC1 [Example 66, 11α, 17α-dihydroxy-21-[4(2-pyridinyl)-1-piperazinyl]-pregna-1,4-diene-3,20-dione(E)-2-butenedioate (1:1) salt]",demonstrate such activity
6,"COc1ccc(CCN(CC(=O)[C@@]2(O)CC[C@H]3[C@@H]4CCC5=CC(=O)CC[C@]5(C)C4=CC[C@@]32C)Cc2ccc(O)c(O)c2)cc1OC [Example 67, 17α-hydroxy-21-[[(3,4-dihydroxyphenyl)methyl][2-(3,4-dimethoxyphenyl)ethyl]amino]pregna-4,9(11)-diene-3,20-dione(E)-2-butenedioate (1:1) salt]",demonstrate such activity
7,"CCN(CC)c1ccc(N)c(N2CCN(CC(=O)[C@@]3(O)CC[C@H]4[C@@H]5CCC6=CC(=O)CC[C@]6(C)C5=CC[C@@]43C)CC2)n1.Cl.Cl [Example 68, 21-[4-[3-amino-6-(diethylamino)-2-pyridinyl]-1-piperazinyl]-17α-hydroxypregna-4,9(11)-diene 3,20-dione dihydrochloride]",demonstrate such activity
8,"CCN(CC)c1cc(N2CCN(CC(=O)[C@H]3CC[C@H]4[C@@H]5CCC6=CC(=O)CC[C@]6(C)[C@H]5[C@H](O)C[C@]34C)CC2)nc(N(CC)CC)n1.Cl.Cl [Example 69, 21-[4-[2,6-bis(diethylamino)-4-pyrimidinyl]-1-piperazinyl]-11α-hydroxypregn-4-ene-3,20-dione dihydrochloride]",demonstrate such activity
9,"CCN(CC)c1cc(N2CCN(CC(=O)[C@@]3(O)CC[C@H]4[C@@H]5CCC6=CC(=O)CC[C@]6(C)[C@H]5[C@H](O)C[C@@]43C)CC2)nc(N(CC)CC)n1.Cl.Cl [Example 70, 21-[4-[2,6-bis(diethylamino)-4-pyrimidinyl]-1-piperazinyl]-11α,17α-dihydroxypregn-4-ene-3,20-dione dihydrochloride]",demonstrate such activity
10,"C=CCNc1nc(NCC=C)nc(N2CCN(CC(=O)[C@H]3CC[C@H]4[C@@H]5CCC6=CC(=O)CC[C@]6(C)[C@H]5C(=O)C[C@]34C)CC2)n1 [Example 72, 21-[4-[4,6-bis(2-propenylamino)-1,3,5-triazin-2-yl]-1-piperazinyl]pregn-4-ene-3,11-20-trione dihydrochloride]",demonstrate such activity
11,"CCN(CC)c1cc(N(CC)CC)nc(N2CCN(CC(=O)[C@@]3(O)CC[C@H]4[C@@H]5CCC6=CC(=O)C=C[C@]6(C)C5=CC[C@@]43C)CC2)n1.Cl.Cl.O [Example 76, 21-[4-[4,6-bis(diethylamino)-2-pyrimidinyl]-1-piperazinyl]-17α-hydroxypregna-1,4,9(11)-triene-3,20-dione dihydrochloride hydrate]",demonstrate such activity
12,"C[C@]12CCC(=O)C=C1CC[C@@H]1C2=CC[C@@]2(C)[C@H]1CC[C@]2(O)C(=O)CN1CCOCC1 [Example 93, 17α-hydroxy-21-(4-morpholino)-pregna-4,9(11)-diene-3,20-dione(E)-2-butanedioate (1:1) salt]",demonstrate such activity
13,"C[C@]12CC(=O)[C@H]3[C@@H](CCC4=CC(=O)CC[C@@]43C)[C@@H]1CC[C@@H]2C(=O)CN1CCN(c2cc(N3CCCC3)nc(N3CCCC3)n2)CC1.Cl.Cl [Example 94, 21-[4-[2,6-bis(1-pyrrolidinyl)-4-pyrimidinyl]-1-piperazinyl]-pregn-4-ene-3,11,20-trione dihydrochloride]",demonstrate such activity
14,"C[C@]12CCC(=O)C=C1CC[C@@H]1C2=CC[C@]2(C)[C@@H](C(=O)CN3CCN(c4ccccn4)CC3)CC[C@@H]12.Cl.Cl [Example 98, 21-[4-[2-pyridinyl)-1-piperazinyl]-pregna-4,9(11)-diene-3,20-dione dihydrochloride]",demonstrate such activity
15,"C[C@]12CCC(=O)C=C1CC[C@@H]1[C@@H]2CC[C@@]2(C)[C@H]1CC[C@]2(O)C(=O)NCc1ccccn1 [Example 103, 17α-Hydroxy-17β[[[(2-pyridinyl)methyl]amino]carbonyl]-androst-4-en-3-one]",demonstrate such activity
16,"C[C@]12CCC(=O)C=C1CC[C@@H]1C2=CC[C@]2(C)[C@@H](CCN3CCN(c4cc(N5CCCC5)nc(N5CCCC5)n4)CC3)CC[C@@H]12.Cl [Example 104, 21-[4-(2,6-Bis(1-pyrrolidinyl)-4-pyrimidinyl)-1-piperazinyl]pregna-4,9(11)-dien-3-one hydrochloride]",demonstrate such activity
17,"C[C@]12CCC(=O)C=C1CC[C@@H]1C2=CC[C@@]2(C)[C@H]1CC[C@]2(O)C(=O)CN1CCN(c2cc(N3CCOCC3)nc(N3CCOCC3)n2)CC1 [Example 105, 21-[4-(2,6-Bis(4-morpholino)-4-pyrimidinyl)-1-piperazinyl]-17α-hydroxypregna-4,9(11)-diene-3,20-dione dihydrochloride, hydrate]",demonstrate such activity
18,"C[C@]12C[C@H](O)[C@H]3[C@@H](CCC4=CC(=O)CC[C@@]43C)[C@@H]1CC[C@@H]2CCN1CCN(c2ccccn2)CC1.Cl.Cl [Example 106, 11β-Hydroxy-21-[4-(2-pyridinyl)-1-piperazinyl]pregn-4-en-3-one dihydrochloride]",demonstrate such activity
19,"C[C@]12CC[C@H]3[C@@H](CCC4=CC(=O)CC[C@@]43C)[C@@H]1CC[C@@H]2CCN1CCN(c2cc(N3CCCC3)nc(N3CCCC3)n2)CC1.Cl [Example 107, 21-[4-(2,6-Bis(1-pyrrolidinyl)-4-pyrimidinyl)-1-piperazinyl]pregna-4-ene-3-one hydrochloride]",demonstrate such activity
20,"C[C@@H]1C[C@H]2[C@@H]3CCC4=CC(=O)C=C[C@]4(C)C3=CC[C@]2(C)[C@H]1C(=O)CN1CCN(c2nc(N3CCCC3)nc(N3CCCC3)n2)CC1.Cl.Cl [Example 114, 21-[4-(4,6-Bis(1-pyrrolidinyl)-1,3,5-triazin-2-yl)-1-piperazinyl]-16α-methylpregna-1,4,9(11)-triene-3,20-dione dihydrochloride]",demonstrate such activity
21,"C[C@]12CCC(=O)C=C1CC[C@@H]1C2=CC[C@@]2(C)[C@H]1CC[C@]2(O)C(=O)CN1CCN(CCN2CCN(c3cc(N4CCCC4)nc(N4CCCC4)n3)CC2)CC1.Cl [Example 115, 21-[4-[2-[4-[2,6-Bis(1-pyrrolidinyl)-4-pyrimidinyl]-1-piperazinyl)ethyl]-1-piperazinyl]-17α-hydroxypregna-4,9(11)-diene-3,20-dione hydrochloride]",demonstrate such activity
22,"C[C@]12CC[C@H]3[C@@H](CCC4=CC(=O)C=C[C@@]43C)[C@@H]1CC[C@@H]2C(=O)CN1CCN(c2cc(N3CCOCC3)nc(N3CCOCC3)n2)CC1 [Example 116, 21-[4-[2,6-Bis(4-morpholine)-4-pyrimidinyl]-1-piperazinyl]pregna-1,4-diene-3,20-dione dihydrochloride]",demonstrate such activity
23,"CCN(CC)c1cc(N2CCN(CC(=O)[C@@]3(O)[C@@H](C)C[C@H]4[C@@H]5C[C@H](F)C6=CC(=O)CC[C@]6(C)C5=CC[C@@]43C)CC2)nc(N(CC)CC)n1.Cl.Cl [Example 117, 21-[4-[2,6-Bis(diethylamino)-4-pyrimidinyl]-1-piperazinyl]-6α-fluoro-17α-hydroxy-16β-methylpregna-4,9(11)-diene-3,20-dione dihydrochloride]",demonstrate such activity
